# Laboratory results reported in PubChem BioAssay AID504467 (National Center for Advancing Translational Sciences (NCATS), 2011).
# In all, about 330,000 compounds went through this assay and about 7,700 (2.3%) were called active. The shares of active, inactive and inconclusive entries below differ from those in the screen. Calls come from the whole dose curve; as a rule, active = well fitted inhibition curve with a large enough effect; inconclusive = small, poorly fitted or top-dose-only effect, or effect the other way; inactive = flat fitted curve, though single readings scatter. A potency beside an inconclusive call is a rough fit, not a confirmed value.
# Test: qHTS screen for small molecules that inhibit ELG1-dependent DNA repair in human embryonic kidney (HEK293T) cells expressing luciferase-tagged ELG1; note: nearly all actives have a fitted effect of over 55% in size
# Details: HEK293T ELG1-luciferase reporter, luminescence, 16 h, DNA damage induced by 5-fluorouridine; series mostly up to 46.1 µM
# Method in brief: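 In this reporter screen, reduction of luminescence relative to DMSO vehicle indicated activity. Compounds and 5-fluorouridine were added together to 2,000 cells per well, incubated for 16 hr at 37 °C, then developed with ONE-Glo.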
# Potency is the fitted concentration of half-maximal effect.
row,Structure (SMILES),Potency
1,O=C(COc1ccc(Br)cc1)Nc1ccc(CN2CCOCC2)cc1,inactive
2,CC(C)C[C@H](NC(=O)[C@@H](Cc1ccccc1)n1c(=O)[nH]c2ccccc2c1=O)C(=O)N[C@@H](Cc1ccccc1)C(=O)O,"inconclusive: 0.231 µM [activator, single point]"
3,Cn1cc(CN2CC3C[C@@H]4CC2C[C@H](C3)C4)c(-c2ccc3c(c2)OCCO3)n1,"inconclusive: 23.1 µM [activator, single point]"
4,CCOC(=O)c1oc2ccccc2c1CN1CCCCC1,inactive
5,CC(=O)c1ccc(C(=O)N2CCc3c([nH]c4ccccc34)C2c2ccccn2)s1 (stereo unspecified),inactive
6,Nc1nc2c(s1)CCc1ccccc1-2,"inconclusive: 18.3 µM [activator, single point]"
7,O=C(Nc1ccccc1)N1CCC(C(=O)N(Cc2ccco2)Cc2cccs2)CC1,"inconclusive: 16.4 µM [inhibitor, single point]"
8,CN(C)c1cccc(C(=O)OCCCC(=O)c2ccc(F)cc2)c1,"inconclusive: 18.3 µM [activator, single point]"
9,COC(=O)[C@H](Cc1ccccc1)[C@@H](C)OS(N)(=O)=O,inactive
10,COc1ccc(CCNC(=O)c2ccc(CNc3nc(=S)[nH]c4ccccc34)cc2)cc1OC,active: 14.6 µM
11,Cc1ccc(O)c(NC(=O)c2cccc(NC(=O)c3ccco3)c2)c1,"inconclusive: 3.66 µM [inhibitor, full curve]"
12,COc1cc(CNc2ccc(N3CCCC3)cc2)ccc1OCc1ccccc1,"inconclusive: 20.6 µM [activator, partial curve]"
13,CC(C[N+](C)(C)C)OC(=O)C1(c2ccccc2)CCCC1 (stereo unspecified),"inconclusive: 0.231 µM [inhibitor, single point]"
14,CC(C)CC(=O)Nc1cc2nn(-c3ccccc3)nc2cc1Cl,"inconclusive: 18.4 µM [activator, partial curve]"
15,CCOC(=O)c1cc2cc(C)ccc2[nH]1,"inconclusive: 18.4 µM [activator, single point]"
16,Cc1csc(NC(=O)c2ccc(C)c([N+](=O)[O-])c2)n1,"inconclusive: 0.651 µM [activator, full curve]"
17,Cn1c(-c2ccc(Br)o2)nc2cc(Br)ccc21,"inconclusive: 3.66 µM [activator, partial curve]"
18,C[C@@H](NC(=O)c1nc[nH]c1C(=O)NCCCCCNC(=O)OC(C)(C)C)c1ccccc1,"inconclusive: 29.1 µM [inhibitor, single point]"
19,NS(=O)(=O)c1ccc(NC(=O)CSc2nnc(NC3CC3)s2)cc1,"inconclusive: 18.3 µM [activator, partial curve, poor fit]"
20,CCOC(=O)c1c(C)nc2sc(C(=O)Nc3ccc(C(C)=O)cc3)c(N)c2c1-c1ccc(OC)cc1,inactive
21,COc1ccc(CCNc2nc(-c3cccnc3)cs2)cc1OC,"inconclusive: 18.4 µM [inhibitor, partial curve]"
22,CSc1nc(-c2ccccc2)nc(C(Cl)Cl)n1,active: 20.6 µM
23,COc1ccc(C(=O)NCC(=O)OCC(=O)NC23CC4CC(CC(C4)C2)C3)cc1,"inconclusive: 14.6 µM [activator, single point]"

row,Structure (SMILES),Potency
1,C=CCN1C(=O)C(O)(CC(=O)c2ccco2)c2cc(Br)ccc21 (stereo unspecified),inactive
2,Cc1cc(C)nc(SCNC(=O)c2ccccc2)n1,inactive
3,O=C(c1cccc([N+](=O)[O-])c1)N1CCN(C/C=C/c2ccccc2)CC1,inactive
4,CCN1C(=O)c2cccc3c(NC(=O)c4ccc(OC)c(OC)c4)ccc1c23,"inconclusive: 16.4 µM [activator, partial curve, poor fit]"
5,O=C(Nc1ccc(Cl)cc1)N1CCCN(Cc2ccc(F)cc2)C1,"inconclusive: 18.4 µM [activator, single point]"
6,COC(=O)c1ccc(CSc2nnc(Nc3ccc(C)cc3)s2)o1,inactive
7,CCC1CCCCN1C(=S)NC(=O)c1ccc(F)c(S(=O)(=O)N2CCOCC2)c1 (stereo unspecified),"inconclusive: 20.6 µM [inhibitor, partial curve]"
8,COc1ccc(-c2noc(-c3ccc(Cl)cc3)n2)cc1,"inconclusive: 5.17 µM [activator, partial curve]"
9,CCc1ccccc1NC(=O)Nc1cccn(Cc2ccccc2F)c1=O,inactive
10,CCN(CC(=O)Nc1ccccc1C(=O)Nc1ccccc1)Cc1nc2ccccc2c(=O)[nH]1,active: 10.3 µM
11,CCn1c(C(=O)N2CCC(C(=O)NCc3cccs3)CC2)cc2sccc21,"inconclusive: 18.4 µM [inhibitor, single point]"
12,CCCN(CC(=O)Nc1ccccc1OC)C(=O)c1ccc(COc2ccccc2)o1,inactive
13,CC(=O)OCCCN1c2ccccc2Nc2nnc(-c3ccccc3)cc21,"inconclusive: 0.58 µM [activator, single point]"
14,Fc1ccc2cnc(-c3cccnc3)cc2c1,"inconclusive: 13 µM [activator, partial curve]"
15,CC(Sc1cccc[n+]1[O-])C(=O)Nc1cccc([N+](=O)[O-])c1 (stereo unspecified),"inconclusive: 32.6 µM [activator, partial curve, poor fit]"
16,Cc1ccc(C2=NC3(CCCCC3)NC2=S)cc1,"inconclusive: 5.8 µM [activator, full curve, poor fit]"
17,CCOC(=O)C(C)Oc1cccc2c(=O)n(CC(=O)NCc3ccc(F)cc3)ccc12 (stereo unspecified),"inconclusive: 0.92 µM [inhibitor, single point]"
18,O=C1CCN(CCc2ccccc2)CCN1[C@H](CO)Cc1ccccc1,inactive
19,O=C(C[n+]1ccn(-c2ccccc2)c1)c1ccc([N+](=O)[O-])cc1,inactive
20,COc1cccc(NC(C)=[N+](C)CCNS(=O)(=O)c2ccc(Cl)cc2)c1,"inconclusive: 29.1 µM [activator, single point]"
21,CCC(C)Sc1nnc(CNC(=O)C23CC4CC(CC(C4)C2)C3)n1C1CCCCC1 (stereo unspecified),inactive
22,Cn1nc(-c2ccc(C(=O)Nc3ccc(F)cc3)cc2)c2ccccc2c1=O,active: 7.3 µM
23,O=C(Nc1ccccn1)Nc1ccccc1[N+](=O)[O-],"inconclusive: 20.6 µM [activator, partial curve]"

# Grouped by structure, the entries above with two or more sulfur atoms.
row,Structure (SMILES),Potency
19,NS(=O)(=O)c1ccc(NC(=O)CSc2nnc(NC3CC3)s2)cc1,"inconclusive: 18.3 µM [activator, partial curve, poor fit]"
6,COC(=O)c1ccc(CSc2nnc(Nc3ccc(C)cc3)s2)o1,inactive
7,CCC1CCCCN1C(=S)NC(=O)c1ccc(F)c(S(=O)(=O)N2CCOCC2)c1 (stereo unspecified),"inconclusive: 20.6 µM [inhibitor, partial curve]"
11,CCn1c(C(=O)N2CCC(C(=O)NCc3cccs3)CC2)cc2sccc21,"inconclusive: 18.4 µM [inhibitor, single point]"
